Assay results published in publication PMC8541776.
No constants are given. Whether binding was seen depends on the method and setting. For part of these data: Binding seen in cells or lysates may run through a third protein. Some binding calls cover weakened binding; strength is not graded here. Tags and fused reporters may be left off the sequences shown.

How the values were obtained:
[1] = biological target: T1, OSH71 (class I KNOX protein) fused to the GAL4 binding domain (rice (Oryza sativa)) (UniProt Q7GDL5); assay: two-hybrid; GAL4 system in S. cerevisiae AH109; KNOX class 1 proteins (and truncated OSH1) on pGBKT7 (BD), SLR1 (full length and truncated) on pGADT7 (AD); selection on SD/-Trp/-Leu/-His/-Ade
T1 sequence: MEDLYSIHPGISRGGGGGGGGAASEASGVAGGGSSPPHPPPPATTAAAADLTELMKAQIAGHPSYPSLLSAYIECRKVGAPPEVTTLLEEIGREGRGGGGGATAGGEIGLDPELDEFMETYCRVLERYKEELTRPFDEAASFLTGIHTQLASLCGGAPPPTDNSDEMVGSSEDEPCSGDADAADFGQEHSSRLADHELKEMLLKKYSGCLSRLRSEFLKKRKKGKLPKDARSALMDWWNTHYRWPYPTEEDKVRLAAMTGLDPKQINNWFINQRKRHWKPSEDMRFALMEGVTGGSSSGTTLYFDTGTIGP

[2] = biological target: T2, OSH1 (class I KNOX protein) fused to the GAL4 binding domain (rice (Oryza sativa)) (UniProt P46609); assay: as above
T2 sequence: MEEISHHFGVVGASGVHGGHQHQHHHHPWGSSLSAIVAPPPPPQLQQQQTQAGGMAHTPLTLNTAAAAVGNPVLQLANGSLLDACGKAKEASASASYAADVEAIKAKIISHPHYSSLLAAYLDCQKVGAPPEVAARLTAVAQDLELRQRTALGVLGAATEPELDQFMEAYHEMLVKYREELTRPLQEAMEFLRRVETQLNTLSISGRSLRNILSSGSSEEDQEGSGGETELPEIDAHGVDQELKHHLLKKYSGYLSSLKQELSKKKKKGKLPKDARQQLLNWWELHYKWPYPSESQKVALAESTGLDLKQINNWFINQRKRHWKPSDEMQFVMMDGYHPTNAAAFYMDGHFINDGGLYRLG

[3] = biological target: T3, OSH6 (class I KNOX protein) fused to the GAL4 binding domain (rice (Oryza sativa)) (UniProt Q9FP29); assay: as above
T3 sequence: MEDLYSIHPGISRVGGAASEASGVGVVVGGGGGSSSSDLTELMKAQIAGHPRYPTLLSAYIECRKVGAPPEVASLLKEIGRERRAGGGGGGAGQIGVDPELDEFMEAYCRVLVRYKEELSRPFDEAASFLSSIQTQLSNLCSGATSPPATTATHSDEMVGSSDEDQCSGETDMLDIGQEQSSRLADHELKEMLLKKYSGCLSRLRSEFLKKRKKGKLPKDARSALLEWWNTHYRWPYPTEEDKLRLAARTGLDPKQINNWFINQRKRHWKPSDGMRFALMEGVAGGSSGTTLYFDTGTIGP

[4] = biological target: T4, OSH15 (class I KNOX protein) fused to the GAL4 binding domain (rice (Oryza sativa)) (UniProt O80416); assay: as above
T4 sequence: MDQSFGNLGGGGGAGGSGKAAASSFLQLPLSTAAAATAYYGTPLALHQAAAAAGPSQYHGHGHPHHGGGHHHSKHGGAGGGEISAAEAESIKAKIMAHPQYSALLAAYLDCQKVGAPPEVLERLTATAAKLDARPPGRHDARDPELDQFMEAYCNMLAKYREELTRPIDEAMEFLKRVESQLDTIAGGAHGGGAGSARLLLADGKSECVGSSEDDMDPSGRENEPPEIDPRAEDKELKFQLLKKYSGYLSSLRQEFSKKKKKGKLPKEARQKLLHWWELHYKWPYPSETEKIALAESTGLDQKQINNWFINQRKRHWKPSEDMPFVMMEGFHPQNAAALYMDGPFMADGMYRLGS

[5] = biological target: T5, OSH15 fused to the N-terminal region of YFP (nYFP) (rice (Oryza sativa)) (UniProt O80416); assay: split reporter; BiFC: SLR1-cYFP and KNOX-nYFP co-infiltrated by Agrobacterium GV3101 into N. benthamiana leaves; YFP read by confocal microscopy after 48 h
T5 sequence: T4 sequence

[6] = biological target: T6, OSH1 fused to the N-terminal region of YFP (nYFP) (rice (Oryza sativa)) (UniProt P46609); assay: as above
T6 sequence: T2 sequence

[7] = biological target: T7, OSH6 fused to the N-terminal region of YFP (nYFP) (rice (Oryza sativa)) (UniProt Q9FP29); assay: as above
T7 sequence: T3 sequence

[8] = biological target: T8, OSH71 fused to the N-terminal region of YFP (nYFP) (rice (Oryza sativa)) (UniProt Q7GDL5); assay: as above
T8 sequence: T1 sequence

[9] = biological target: T9, OSH6 fused to the N-terminal luciferase domain (nLuc) (rice (Oryza sativa), Nipponbare) (UniProt Q9FP29); assay: split reporter; split-luciferase: KNOX class 1 proteins with nLuc, SLR1 with cLuc, in tobacco leaves by Agrobacterium; CCD imaging after 36 h in the dark
T9 sequence: T3 sequence

[10] = biological target: T10, OSH71 fused to the N-terminal luciferase domain (nLuc) (rice (Oryza sativa), Nipponbare) (UniProt Q7GDL5); assay: as above
T10 sequence: T1 sequence

[11] = biological target: T11, OSH15 fused to the N-terminal luciferase domain (nLuc) (rice (Oryza sativa), Nipponbare) (UniProt O80416); assay: as above
T11 sequence: T4 sequence

[12] = biological target: T12, OSH1 fused to the N-terminal luciferase domain (nLuc) (rice (Oryza sativa), Nipponbare) (UniProt P46609); assay: as above
T12 sequence: T2 sequence

Measured: binding

B1: SLR1 (SLENDER RICE 1, DELLA protein) fused to the GAL4 activation domain (protein, UniProt Q7G7J6 1-625)
chain: MKREYQEAGGSSGGGSSADMGSCKDKVMAGAAGEEEDVDELLAALGYKVRSSDMADVAQKLEQLEMAMGMGGVSAPGAADDGFVSHLATDTVHYNPSDLSSWVESMLSELNAPLPPIPPAPPAARHASTSSTVTGGGGSGFFELPAAADSSSSTYALRPISLPVVATADPSAADSARDTKRMRTGGGSTSSSSSSSSSLGGGASRGSVVEAAPPATQGAAAANAPAVPVVVVDTQEAGIRLVHALLACAEAVQQENFAAAEALVKQIPTLAASQGGAMRKVAAYFGEALARRVYRFRPADSTLLDAAFADLLHAHFYESCPYLKFAHFTANQAILEAFAGCHRVHVVDFGIKQGMQWPALLQALALRPGGPPSFRLTGVGPPQPDETDALQQVGWKLAQFAHTIRVDFQYRGLVAATLADLEPFMLQPEGEADANEEPEVIAVNSVFELHRLLAQPGALEKVLGTVHAVRPRIVTVVEQEANHNSGSFLDRFTESLHYYSTMFDSLEGGSSGQAELSPPAAGGGGGTDQVMSEVYLGRQICNVVACEGAERTERHETLGQWRNRLGRAGFEPVHLGSNAYKQASTLLALFAGGDGYRVEEKEGCLTLGWHTRPLIATSAWRVAAA
binds: [1] | [2] | [3] | [4]

B2: SLR1 fused to the C-terminal region of YFP (SLR1-cYFP) (protein, UniProt Q7G7J6 1-625)
chain: B1 chain
binds: [5] | [6] | [7] | [8]

B3: SLR1 fused to the C-terminal luciferase domain (cLuc) (protein, UniProt Q7G7J6 1-625)
chain: B1 chain
binds: [9] | [10] | [11] | [12]
